These are yes or no findings as the source states them, for the method shown. Binding can be weak; no strength is given.

Test in all cases: two-hybrid
The target in experiment [1] is SlRNRL1 (ribonucleotide reductase large subunit 1) (tomato (S. lycopersicum)).
Experiment [2] addresses SlRNRL2 (ribonucleotide reductase large subunit 2) (tomato (S. lycopersicum)).
Experiment [3] addresses SlRNR2 (a small subunit of the RNR complex) (tomato (S. lycopersicum)).

Regarding “SlRNR2 (a small subunit of the RNR complex) (from UniProt A0A3Q7EHT3)”, the binding result in experiment [1] and in experiment [2] was “binds” each time. On to “SlRNRL1 (ribonucleotide reductase large subunit 1) (from UniProt A0A3Q7GRB4)”, for which the binding result in experiment [3] is reported as “binds”. “SlRNRL2 (ribonucleotide reductase large subunit 2) (from UniProt A0A3Q7G4T7)”: in experiment [3], the binding result is given as “binds”.
